According to patent US20220290122A1 (Whitehead Institute for Biomedical Research, priority 2019, published 2022):
Entries after “also recorded” stand apart in the source; their conditions may differ. For at least one compound, name, drawing or mass did not settle the structure.

Test system: MCART1-null Jurkat cells
Experiment: Cell proliferation assay with metabolite supplementation (metabolite rescue)
Type: cell-based, human
Conditions: cells stably expressing the plasma membrane aspartate transporter SLC1A3; 10 mM aspartate in RPMI media; FIG. 5N

N[C@@H](CC(=O)O)C(=O)O [aspartate]
rescue of the proliferation defect of MCART1-null cells by aspartate: not rescued; also recorded: does not rescue
